# In PubChem BioAssay AID504834 (National Center for Advancing Translational Sciences (NCATS), 2011):
# The campaign covered roughly 320,000 compounds. About 22,000 (6.9%) were called active. Inconclusive means that the source gave no clear call. Such entries were picked first, then a sample of the others. The call rests on the fitted dose curve; in most records, active means well fitted inhibition curve with a large enough effect; inconclusive means small, poorly fitted or top-dose-only effect, or another doubt; inactive means no such curve, though single readings can be large or run the other way. Potencies of inconclusive entries are doubtful fits and often do not repeat.
# Test: Primary qHTS for delayed death inhibitors of the malarial parasite plastid, 96 hour incubation
# Conditions: P. falciparum luciferase reporter growth; series mostly up to 28.7 µM
# Outline: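 Compounds incubated with erythrocytes infected by luciferase-expressing P. falciparum (2% hematocrit, 0.05% parasitemia final) for 96 hours, 37 C in 5% CO2. Growth inhibition scored as decreased luciferase luminescence.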
# Potency means the concentration at half of the fitted maximal effect.
row,SMILES,Potency
1,COC(=O)C(C)N1C(=O)S/C(=C/c2cc(C)n(-c3ccccn3)c2C)C1=O (stereo not drawn),inactive
2,Cn1nc(CC(=O)NC2CCCCCCCCCCC2)c2ccccc2c1=O,"inconclusive: 4.15 µM [inhibitor, single point]"
3,COC(=O)C(Cc1c[nH]c2ccccc12)NC(=O)C1CC1 (stereo not drawn),inactive
4,CCCCn1c(N)c(N(CC(C)C)C(=O)c2ccc(S(=O)(=O)N3CCCCC3)cc2)c(=O)[nH]c1=O,"inconclusive: 9.28 µM [inhibitor, partial curve, poor fit]"
5,COc1ccccc1-c1noc(CCC(=O)Nc2ccccc2Cl)n1,"inconclusive: 10.4 µM [inhibitor, partial curve, poor fit]"
6,Cc1nn(CC(=O)NCc2ccccn2)c(C)c1[N+](=O)[O-],"inconclusive: 4.15 µM [inhibitor, single point]"
7,CCn1c(=O)c(C(C)=O)nc2ccccc21,inactive
8,OC1(c2cccc(C(F)(F)F)c2)CCNCC1,active: 13.1 µM
9,O=C(Nc1nnc(-c2ccco2)o1)c1ccc(S(=O)(=O)N2CCCC2)cc1,"inconclusive: 18.5 µM [inhibitor, single point]"
10,c1ccc(-[n+]2nc(Nc3cccc4ccccc34)sc2-c2c3ccccc3cc3ccccc23)cc1,active: 0.828 µM
11,CCOc1c(CNCCNC(=O)c2nonc2N)cccc1OC,"inconclusive: 18.5 µM [inhibitor, single point]"
12,CC(C)(C)C(=O)[C@H]1[C@H](c2ccccc2)[C@@]2(N=C(c3ccccc3)OC2=O)C2c3ccccc3C=NN21 (stereo partly drawn),"inconclusive: 0.0928 µM [inhibitor, full curve, poor fit]"
13,CC(=O)Nc1ccc(S(=O)(=O)N2CCc3c(Cl)cccc3C2)cc1,active: 14.7 µM
14,CCC1Oc2ccccc2N(CC(=O)NCCCN2CCN(CC)CC2)C1=O (stereo not drawn),"inconclusive: 0.37 µM [inhibitor, partial curve, poor fit]"
15,COc1ccc(CCN(C)C(=O)c2cc(S(=O)(=O)N3CCCCC3)ccc2Cl)cc1OC,"inconclusive: 0.738 µM [inhibitor, partial curve, poor fit]"
16,O=C(CCl)NN1C(=O)NC2(CCCCC2)C1=O,"inconclusive: 7.38 µM [inhibitor, partial curve, poor fit]"
17,Cc1cc(C)c(C(=O)O)c(CC(C)(C)C(=O)O)c1,"inconclusive: 2.94 µM [inhibitor, partial curve, poor fit]"
18,COc1ccc(N2CCN(C(=O)COC(=O)c3c(-c4ccccc4)noc3C)CC2)cc1,inactive
19,Cc1nc(N2C(=O)C(=O)/C(=C(/O)c3ccccc3)C2c2ccco2)sc1C (stereo not drawn),"inconclusive: 0.415 µM [inhibitor, full curve, poor fit]"
20,CCn1cc(CNC(=S)Nc2cccc3ccccc23)cn1,inactive
21,CCOC(=O)Cc1nnc(NC(=O)CSc2nnc3c4ccccc4n(C)c3n2)s1,"inconclusive: 18.5 µM [inhibitor, single point]"
22,CC(C)N(C(=O)Cn1c(SCC(=O)NCc2ccc3c(c2)OCO3)nc2ccccc21)C(C)C,"inconclusive: 8.28 µM [inhibitor, single point]"

# As entered above.
# `CCn1c(=O)c(C(C)=O)nc2ccccc21` | Potency: inactive
# `CC(C)N(C(=O)Cn1c(SCC(=O)NCc2ccc3c(c2)OCO3)nc2ccccc21)C(C)C` | Potency: inconclusive: 8.28 µM [inhibitor, single point]
# `CC(=O)Nc1ccc(S(=O)(=O)N2CCc3c(Cl)cccc3C2)cc1` | Potency: active: 14.7 µM

# Continued:

row,SMILES,Potency
1,CN(C(=O)CSc1nc2ccc(Br)cc2c(=O)n1Cc1ccco1)C1CCS(=O)(=O)C1 (stereo not drawn),"inconclusive: 6.57 µM [inhibitor, partial curve, poor fit]"
2,N#Cc1c(N)nc2c(c1N)CC(CCl)O2 (stereo not drawn),"inconclusive: 2.94 µM [inhibitor, single point]"
3,CCCCOc1ccc(C(=O)N2CCN(c3ncccn3)CC2)cc1,"inconclusive: 18.5 µM [inhibitor, single point]"
4,COCCCn1c(=O)c2ccccc2n(Cc2cccc(C)c2)c1=O,"inconclusive: 0.0041 µM [inhibitor, full curve, poor fit]"
5,COc1cccc(-c2nnc(NC(=O)c3ccc(S(=O)(=O)N4CCOCC4)cc3)o2)c1,inactive
6,CC(C)C(=O)N1CCC(Cc2ccccc2)CC1,"inconclusive: 18.5 µM [inhibitor, single point]"
7,Cc1cn2c(-c3ccc(Cl)cc3)nnc2s1,inactive
8,Cc1ccc(N=C2SCCCN2C(=O)c2ccco2)cc1Cl,"inconclusive: 18.5 µM [inhibitor, single point]"
9,CCCCCC[C@@H](O)C/C=C\CCCCCCCC(=O)O,inactive
10,COc1ccc(OCC(=O)Nc2ccc(N3CCCCC3)cc2)cc1,"inconclusive: 14.7 µM [inhibitor, partial curve, poor fit]"
11,COC(=O)c1cccc(NC(=O)c2cnccn2)c1,"inconclusive: 18.5 µM [inhibitor, single point]"
12,CC(CCc1ccccc1)NC(=O)CCN1N=C(c2ccccc2)CCC1=O (stereo not drawn),"inconclusive: 4.15 µM [inhibitor, single point]"
13,COCCn1c(SCC(=O)c2c[nH]c3ccccc23)nnc1-c1ccncc1,"inconclusive: 18.5 µM [inhibitor, single point]"
14,CC(=O)Nc1ccc(S(=O)(=O)NCC2CCC(C(=O)NCCCOC(C)C)CC2)cc1 (stereo not drawn),"inconclusive: 0.928 µM [inhibitor, partial curve]"
15,CCOC(=O)c1[nH]c(C)c(C(=O)OCC(=O)N(Cc2ccccc2)C(C)C)c1C,"inconclusive: 18.5 µM [inhibitor, single point]"
16,CCS(=O)(=O)Nc1ccc(C2=NN(C(=O)c3ccco3)C(c3cccc(F)c3)C2)cc1 (stereo not drawn),"inconclusive: 18.5 µM [inhibitor, single point]"
17,Cc1ccc(-n2sc3ccccc3c2=O)cc1S(=O)(=O)N1CCCCC1,active: 4.15 µM
18,CCCCc1nc(Cl)c(CO)n1Cc1ccc(-c2ccccc2-c2nn[nH]n2)cc1,active: 7.57 µM
19,CCOC(=O)NC(=S)Nc1ccc(C(C)(C)C)cc1Br,"inconclusive: 20.8 µM [inhibitor, partial curve, poor fit]"
20,Cc1occc1C(=O)Nc1nnc(-c2cccs2)s1,inactive
21,COc1ccc(N(C(=O)C(C)C)S(=O)(=O)c2ccc3c(c2)n(C)c(=O)n3C)cc1,"inconclusive: 14.7 µM [inhibitor, single point]"
